Data source: PubChem BioAssay AID602196 (INSERM, 2012)
The deposit covers about 23,000 reagents; this is an unselected part. Of all reagents, 455 (2%) got an active call. 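Active includes both protection and sensitisation; some change values fall well beyond the stated -50 to +50 range.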 Not given: the amount of reagent.

Assay: 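Knock-downs that protect lung cancer cells from cisplatin or sensitise them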
Cell system: human A549 lung cancer cells
Reagents: siRNA pair against human genes
Timing: 48 h transfection before cisplatin; time from cisplatin to read-out not stated
Challenge: cisplatin at a dose killing half of control-siRNA cells; exact dose and duration not given
Measurement: 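Shift in cisplatin death relative to control siRNA, from -50 (all cells die) to +50 (no cells die); siRNAs harmful on their own scored 0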
Scale: two-siRNA summed score (-2 to +2): higher = both siRNAs protect from cisplatin killing; -2 means both sensitise; mean protection from cisplatin (shift in death) and protection from cisplatin (shift in death), siRNA C and protection from cisplatin (shift in death), siRNA D: higher = protection from cisplatin killing
Hit rule: 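siRNAs harmful alone (LDH or WST-1) get 0; others get +1 for less and -1 for more cisplatin killing; genes are active when the two siRNAs give the same sign, summing to ±2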
Calls: active = both siRNAs shift cisplatin killing the same way; inactive = no consistent shift, or siRNA harmful alone

gene	two-siRNA summed score (-2 to +2)	mean protection from cisplatin (shift in death) (%)	protection from cisplatin (shift in death), siRNA C (%)	protection from cisplatin (shift in death), siRNA D (%)	activity call
PANX3	0	1.6	14.4	-11.2	inactive
IFT122	0	12.1	10	14.2	inactive
GK5	0	9.7	26.6	-7.1	inactive
ZNF132	0	6.7	6.5	6.9	inactive
LOC148206	0	10.5	14.1	6.9	inactive
ATPSCKMT	2	20.5	27.1	13.9	active
SMC1A	0	6.5	13.6	-0.5	inactive
PCNX2	0	8	10.8	5.1	inactive
PM20D1	0	1.2	4	-1.6	inactive
KCNT1	0	-22.4	2.3	-47.2	inactive
PRL	0	-10.5	-21.7	0.7	inactive
UCHL1	0	0.1	-10.3	10.5	inactive
LINC03086	0	12.5	24.6	0.5	inactive
GARIN1B	0	-1.2	-4.6	2.2	inactive
LOC402336	1	16.3	6.5	26.2	inactive
SLC6A20	0	4.4	14.6	-5.8	inactive
HYAL2	0	-2.9	-2.7	-3.1	inactive
LOC132241	0	7.9	16	-0.3	inactive
LOC440373	0	8.8	9.9	7.6	inactive
SLITRK6	-1	-5.4	2.5	-13.3	inactive
CHST1	0	2.3	-1.7	6.3	inactive
NPDC1	0	0.9	-1.6	3.4	inactive
LCN12	0	14	4.9	23.1	inactive
BOLA1	0	5.1	1.5	8.7	inactive
GTPBP1	0	2.6	-3.2	8.4	inactive
ZNF181	0	3.9	4.1	3.7	inactive
ICE1	0	5.1	5.7	4.6	inactive
OSGIN1	0	3.7	-1.9	9.3	inactive
LOC120872	-1	-4.4	8.1	-16.9	inactive
DGKA	1	11.2	10.9	11.4	inactive

The list goes on, starting with the last 3 of the part before.
gene	two-siRNA summed score (-2 to +2)	mean protection from cisplatin (shift in death) (%)	protection from cisplatin (shift in death), siRNA C (%)	protection from cisplatin (shift in death), siRNA D (%)	activity call
OSGIN1	0	3.7	-1.9	9.3	inactive
LOC120872	-1	-4.4	8.1	-16.9	inactive
DGKA	1	11.2	10.9	11.4	inactive
RAB18	-1	-9.5	-20.6	1.5	inactive
ELMOD1	0	15.9	27.6	4.3	inactive
DNAJC5B	1	13.4	16	10.8	inactive
PLCXD3	2	18	26.4	9.6	active
STK38L	0	1.4	3.1	-0.4	inactive
ZC2HC1C	0	12.1	14.2	10	inactive
FYRD1	0	6.3	10.3	2.4	inactive
NOX4	-1	-11.4	-6.7	-16	inactive
ARID4A	-1	-13.5	-26.4	-0.7	inactive
PCDH20	1	17.1	17.4	16.9	inactive
LOC388567	1	-0.5	13.4	-14.4	inactive
RPL35	0	2.6	-2.1	7.4	inactive
PKDREJ	0	-14.5	-3.6	-25.4	inactive
TPMT	0	4.3	1.8	6.8	inactive
LOC392793	0	0.7	-3	4.4	inactive
TTLL1	0	13.4	12.8	13.9	inactive
TNFRSF8	0	4.3	2.2	6.4	inactive
LOC400164	-1	-11.1	-1.1	-21.2	inactive
SNRPE	0	-1.8	0.7	-4.2	inactive
SPINK1	-1	-16	-15.4	-16.6	inactive
LOC151363	0	5.3	10.4	0.2	inactive
LOC388312	2	21.4	23.8	19.1	active
LOC401155	1	14.8	12.5	17.1	inactive
GTPBP10	0	3.4	-0.2	6.9	inactive
RFFL	0	-11.9	5	-28.9	inactive
E2F5	0	6.9	4.2	9.5	inactive
LOC388477	0	-0.3	-1.8	1.2	inactive
